Measurements from ChEMBL document CHEMBL3098017, “Discovery and in Vivo Evaluation of Potent Dual CYP11B2 (Aldosterone Synthase) and CYP11B1 Inhibitors” (ACS Med Chem Lett, 2013).

What was measured:
[1] = molecular target: T1, Cytochrome P450 11B1, mitochondrial (Rattus norvegicus, UniProt P15393); test: Inhibition of rat recombinant CYP11B1 using 11-deoxycortisol as substrate by cell-based assay
T1 sequence (P15393 whole entry): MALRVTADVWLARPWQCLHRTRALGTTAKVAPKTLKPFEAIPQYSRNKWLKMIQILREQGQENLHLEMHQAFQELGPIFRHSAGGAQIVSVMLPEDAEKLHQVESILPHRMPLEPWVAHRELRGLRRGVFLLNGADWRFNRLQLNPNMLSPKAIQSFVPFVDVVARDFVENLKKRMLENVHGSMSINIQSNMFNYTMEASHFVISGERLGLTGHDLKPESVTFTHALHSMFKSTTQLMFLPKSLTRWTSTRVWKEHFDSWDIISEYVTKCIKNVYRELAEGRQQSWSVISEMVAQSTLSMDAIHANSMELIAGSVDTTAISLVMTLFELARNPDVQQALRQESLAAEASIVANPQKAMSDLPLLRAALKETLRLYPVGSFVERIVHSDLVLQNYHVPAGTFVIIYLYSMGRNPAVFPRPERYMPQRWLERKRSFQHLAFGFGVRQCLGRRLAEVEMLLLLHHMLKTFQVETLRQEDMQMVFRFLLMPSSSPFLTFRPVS
In short: (§1)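 Recombinant rat CYP11b2 and CYP11b1 prepared in the same way as the human enzymes; enzymatic activity inhibition, IC50.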

[2] = molecular target: T2, Cytochrome P450 11B2, mitochondrial (Rattus norvegicus, UniProt P30099); test: Inhibition of rat recombinant CYP11B2 using 11-deoxycorticosterone as substrate by cell-based assay; in short: as §1
T2 sequence (P30099 whole entry): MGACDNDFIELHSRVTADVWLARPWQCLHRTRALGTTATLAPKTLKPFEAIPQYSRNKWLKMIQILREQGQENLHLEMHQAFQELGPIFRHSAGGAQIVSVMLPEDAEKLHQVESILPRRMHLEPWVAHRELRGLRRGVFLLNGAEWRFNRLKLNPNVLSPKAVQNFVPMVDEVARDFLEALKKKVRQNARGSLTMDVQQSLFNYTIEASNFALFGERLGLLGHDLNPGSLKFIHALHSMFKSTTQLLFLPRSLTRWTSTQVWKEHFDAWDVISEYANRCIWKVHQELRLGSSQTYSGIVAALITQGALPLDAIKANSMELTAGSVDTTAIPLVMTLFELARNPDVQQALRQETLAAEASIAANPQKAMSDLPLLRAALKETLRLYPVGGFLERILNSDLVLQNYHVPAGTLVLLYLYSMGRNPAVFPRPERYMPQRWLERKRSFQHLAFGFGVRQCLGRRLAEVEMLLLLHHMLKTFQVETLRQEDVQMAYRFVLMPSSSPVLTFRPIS

IC50 [1]: 686 nM
IC50 [2]: 118 nM
Compound: N#Cc1ccc([C@H]2CCCc3cncn32)cc1 [DEXFADROSTAT]
